Source: the supplement of paper PMC7238544
Where a name gives a salt, the structure may show the parent alone. ± gives the standard deviation of the averaged measurements. The list shows a part of the results. The data scatter; read single values as rough.

Experiments:
hAMSC donor 1 [1] = assay: Hoechst total cell count ratio vs vehicle control; higher = more cells (less toxicity)
hAMSC donor 2 [2] = assay: as above
hAMSC donor 1 [3] = assay: transgenic luciferase activity (RLU/mg protein) fold change vs vehicle control (ratio); higher = more transgene expression
hAMSC donor 2 [4] = assay: as above
hAMSC donor 1 [5] = assay: transfection efficiency (EGFP+ cells / Hoechst count) fold change vs vehicle control (ratio); hAMSC are human adipose-derived mesenchymal stem cells given an EGFP-luciferase plasmid by lipofection; higher = enhanced transfection
hAMSC donor 2 [6] = assay: as above
[7] = priming compound concentration 0.2 µM
[8] = priming compound concentration 1.7 µM
[9] = priming compound concentration 13 µM

Row | Compound | Hoechst total cell count ratio (hAMSC donor 1 [1]; [7]) | Hoechst total cell count ratio (hAMSC donor 1 [1]; [8]) | Hoechst total cell count ratio (hAMSC donor 1 [1]; [9]) | Hoechst total cell count ratio (hAMSC donor 2 [2]; [7]) | Hoechst total cell count ratio (hAMSC donor 2 [2]; [8]) | Hoechst total cell count ratio (hAMSC donor 2 [2]; [9]) | transgenic luciferase activity (hAMSC donor 1 [3]; [8]) | transgenic luciferase activity (hAMSC donor 2 [4]; [7]) | transgenic luciferase activity (hAMSC donor 2 [4]; [8]) | transfection efficiency (hAMSC donor 1 [5]; [7]) | transfection efficiency (hAMSC donor 1 [5]; [8]) | transfection efficiency (hAMSC donor 1 [5]; [9]) | transfection efficiency (hAMSC donor 2 [6]; [7]) | transfection efficiency (hAMSC donor 2 [6]; [8]) | transfection efficiency (hAMSC donor 2 [6]; [9]) | transgenic luciferase activity (hAMSC donor 1 [3]; [9]) | transgenic luciferase activity (hAMSC donor 2 [4]; [9])
1 | CC(C)NCC(O)c1ccc(NS(C)(=O)=O)cc1 (stereo not given) [Sotalol hydrochloride] | 1.18 ± 0.064 | 1.06 ± 0.11 | 1.19 ± 0.051 | 0.982 ± 0.25 | 1.43 ± 0.13 | 1.25 ± 0.19 | 0.791 ± 0.079 | 1.03 ± 0.28 | 1.11 ± 0.24 | 0.868 ± 0.35 | 1.2 ± 0.23 | 1.16 ± 0.58 | 1.28 ± 0.17 | 0.842 ± 0.16 | 0.961 ± 0.16 | – | –
2 | CN(C)CCC=C1c2ccccc2COc2ccccc21 [Doxepin hydrochloride] | 1.46 ± 0.034 | 1.39 ± 0.41 | 1.55 ± 0.14 | 1.19 ± 0.035 | 1.33 ± 0.02 | 1.68 ± 0.14 | – | 0.746 ± 0.057 | – | 0.777 ± 0.32 | 0.929 ± 0.39 | 0.749 ± 0.37 | 1.1 ± 0.32 | 0.782 ± 0.044 | 0.69 ± 0.15 | 1.04 ± 0.17 | 0.402 ± 0.12
3 | N[C@@H]1CONC1=O [D-Cycloserine] | 1.39 ± 0.14 | 1.23 ± 0.19 | 1.53 ± 0.23 | 1.44 ± 0.15 | 1.26 ± 0.21 | 1.14 ± 0.08 | 1.74 ± 0.24 | – | 0.383 ± 0.19 | 1.1 ± 0.3 | 1.19 ± 0.18 | 1.28 ± 0.95 | 0.793 ± 0.14 | 0.916 ± 0.11 | 1.11 ± 0.035 | – | 0.572 ± 0.092
4 | C=C1/C(=C\C=C2/CCC[C@]3(C)[C@@H]([C@H](C)CCCC(C)(C)O)CC[C@@H]23)C[C@@H](O)C[C@@H]1O [Calcitriol] | 1.26 ± 0.13 | 1.11 ± 0.036 | 0.843 ± 0.083 | 1.09 ± 0.15 | 0.878 ± 0.059 | 1.1 ± 0.078 | 1.5 ± 0.51 | 1.67 ± 0.093 | 1.6 ± 0.093 | 0.706 ± 0.15 | 0.91 ± 0.13 | 1.34 ± 0.46 | 1.4 ± 0.21 | 1.53 ± 0.23 | 1.17 ± 0.11 | – | –
5 | COc1c(N2CCNC(C)C2)c(F)cc2c(=O)c(C(=O)O)cn(C3CC3)c12 (stereo not given) [Gatifloxacin] | 1.11 ± 0.021 | 1.09 ± 0.083 | 1.16 ± 0.02 | 1.222 ± 0.006 | 1.19 ± 0.14 | 1.23 ± 0.16 | 0.993 ± 0.17 | 1.19 ± 0.69 | 0.874 ± 0.17 | 1.04 ± 0.22 | 1.11 ± 0.28 | 1.48 ± 0.38 | 1.38 ± 0.22 | 1.12 ± 0.36 | 1.2 ± 0.14 | – | –
6 | OC(CCN1CCCCC1)(c1ccccc1)C1CCCCC1 (stereo not given) [Trihexyphenidyl hydrochloride] | 1.14 ± 0.038 | 1.16 ± 0.12 | 1.25 ± 0.11 | 0.858 ± 0.087 | 1.31 ± 0.14 | 1.71 ± 0.12 | 0.498 ± 0.021 | 0.84 ± 0.25 | 0.823 ± 0.16 | 0.874 ± 0.07 | 0.553 ± 0.26 | 1.41 ± 0.36 | 1.33 ± 0.16 | 1.06 ± 0.16 | 0.621 ± 0.12 | – | –
7 | CO[C@H]1/C=C/O[C@@]2(C)Oc3c(C)c(O)c4c(c3C2=O)C2=NC3(CCN(CC(C)C)CC3)NC2=C(NC(=O)/C(C)=C\C=C\[C@H](C)[C@H](O)[C@@H](C)[C@@H](O)[C@@H](C)[C@H](OC(C)=O)[C@@H]1C)C4=O [Rifabutin] | 1.38 ± 0.22 | 1.55 ± 0.078 | 1.43 ± 0.2 | 1.21 ± 0.054 | 1.03 ± 0.2 | 1.56 ± 0.16 | – | 0.721 ± 0.12 | – | 1.05 ± 0.37 | 1.06 ± 0.15 | 0.543 ± 0.24 | 0.982 ± 0.032 | 0.864 ± 0.088 | 0.682 ± 0.11 | 0.68 ± 0.073 | 0.416 ± 0.079
8 | COc1ccc2c(c1)c(CC(=O)O)c(C)n2C(=O)c1ccc(Cl)cc1 [Indomethacin hydrate] | 1.25 ± 0.039 | 1.18 ± 0.051 | 1.34 ± 0.074 | 1.08 ± 0.079 | 1.37 ± 0.19 | 1.22 ± 0.12 | 1.15 ± 0.39 | – | 0.711 ± 0.049 | 1 ± 0.37 | 1.21 ± 0.23 | 1.26 ± 0.29 | 1.18 ± 0.056 | 1.03 ± 0.19 | 0.967 ± 0.13 | – | 0.658 ± 0.2
9 | CN1C(=O)CC[C@H]1c1cccnc1 [(-)-Cotinine] | 1.14 ± 0.046 | 1.02 ± 0.013 | 1.19 ± 0.05 | 1.19 ± 0.25 | 1.05 ± 0.15 | 1.11 ± 0.21 | 0.914 ± 0.2 | 1.24 ± 0.32 | 0.718 ± 0.049 | 1.14 ± 0.32 | 1.26 ± 0.34 | 1.7 ± 1.1 | 0.938 ± 0.13 | 1.16 ± 0.16 | 1.02 ± 0.027 | – | –
10 | COc1cc(Cc2cnc(N)nc2N)cc(OC)c1OC [Trimethoprim] | 1.17 ± 0.021 | 1.08 ± 0.026 | 1.19 ± 0.059 | 1.11 ± 0.14 | 1.12 ± 0.33 | 1.42 ± 0.35 | 0.561 ± 0.06 | 1.78 ± 0.55 | 1.34 ± 0.018 | 1.02 ± 0.25 | 0.768 ± 0.062 | 1.41 ± 0.43 | 1.5 ± 0.52 | 1.81 ± 0.27 | 1.15 ± 0.28 | – | –
11 | CC(=O)Oc1ccccc1C(=O)Nc1ncc([N+](=O)[O-])s1 [Nitazoxanide] | 1.38 ± 0.14 | 1.1 ± 0.096 | 1.03 ± 0.022 | 1.01 ± 0.073 | 1.15 ± 0.052 | 1.58 ± 0.18 | – | 1.06 ± 0.33 | – | 0.842 ± 0.056 | 1.45 ± 0.45 | 1.63 ± 0.17 | 1.15 ± 0.21 | 0.753 ± 0.1 | 0.801 ± 0.16 | 1.61 ± 0.38 | 0.639 ± 0.34
12 | CC(C)C[C@H](NC(=O)[C@@H](COC(C)(C)C)NC(=O)[C@H](Cc1ccc(O)cc1)NC(=O)[C@H](CO)NC(=O)[C@H](Cc1c[nH]c2ccccc12)NC(=O)[C@H](Cc1cnc[nH]1)NC(=O)[C@@H]1CCC(=O)N1)C(=O)N[C@@H](CCCNC(=N)N)C(=O)N1CCC[C@H]1C(=O)NNC(N)=O [Goserelin acetate] | 1.02 ± 0.074 | 1.08 ± 0.071 | 1.18 ± 0.071 | 1.36 ± 0.21 | 1.46 ± 0.19 | 1.32 ± 0.081 | 0.688 ± 0.26 | 0.923 ± 0.19 | 0.856 ± 0.091 | 1.05 ± 0.093 | 1.06 ± 0.25 | 1.79 ± 0.56 | 0.754 ± 0.056 | 1.03 ± 0.032 | 0.978 ± 0.049 | – | –
13 | Clc1ccccc1C(c1ccccc1)(c1ccccc1)n1ccnc1 [Clotrimazole] | 1.23 ± 0.064 | 1.29 ± 0.036 | 1.19 ± 0.18 | 0.94 ± 0.033 | 1.32 ± 0.098 | 1.19 ± 0.079 | 1.32 ± 0.36 | – | 0.757 ± 0.1 | 1.05 ± 0.21 | 1.22 ± 0.3 | 1.29 ± 0.35 | 1.18 ± 0.27 | 0.947 ± 0.044 | 1.03 ± 0.12 | – | 0.733 ± 0.2
14 | CN(C)CCN(Cc1ccccc1)c1ccccn1 [Tripelennamine hydrochloride] | 1.23 ± 0.2 | 0.931 ± 0.065 | 1.31 ± 0.3 | 1.42 ± 0.084 | 1.58 ± 0.13 | 1.06 ± 0.067 | 1.69 ± 0.71 | – | 0.797 ± 0.025 | 0.873 ± 0.077 | 1.46 ± 0.4 | 1.02 ± 0.16 | 0.734 ± 0.14 | 0.893 ± 0.049 | 1.16 ± 0.13 | – | 0.45 ± 0.11

Structures from the list above with an aryl methoxy group (3):
Row | Compound | Hoechst total cell count ratio (hAMSC donor 1 [1]; [7]) | Hoechst total cell count ratio (hAMSC donor 1 [1]; [8]) | Hoechst total cell count ratio (hAMSC donor 1 [1]; [9]) | Hoechst total cell count ratio (hAMSC donor 2 [2]; [7]) | Hoechst total cell count ratio (hAMSC donor 2 [2]; [8]) | Hoechst total cell count ratio (hAMSC donor 2 [2]; [9]) | transgenic luciferase activity (hAMSC donor 1 [3]; [8]) | transgenic luciferase activity (hAMSC donor 2 [4]; [7]) | transgenic luciferase activity (hAMSC donor 2 [4]; [8]) | transfection efficiency (hAMSC donor 1 [5]; [7]) | transfection efficiency (hAMSC donor 1 [5]; [8]) | transfection efficiency (hAMSC donor 1 [5]; [9]) | transfection efficiency (hAMSC donor 2 [6]; [7]) | transfection efficiency (hAMSC donor 2 [6]; [8]) | transfection efficiency (hAMSC donor 2 [6]; [9]) | transgenic luciferase activity (hAMSC donor 1 [3]; [9]) | transgenic luciferase activity (hAMSC donor 2 [4]; [9])
5 | COc1c(N2CCNC(C)C2)c(F)cc2c(=O)c(C(=O)O)cn(C3CC3)c12 (stereo not given) [Gatifloxacin] | 1.11 ± 0.021 | 1.09 ± 0.083 | 1.16 ± 0.02 | 1.222 ± 0.006 | 1.19 ± 0.14 | 1.23 ± 0.16 | 0.993 ± 0.17 | 1.19 ± 0.69 | 0.874 ± 0.17 | 1.04 ± 0.22 | 1.11 ± 0.28 | 1.48 ± 0.38 | 1.38 ± 0.22 | 1.12 ± 0.36 | 1.2 ± 0.14 | – | –
8 | COc1ccc2c(c1)c(CC(=O)O)c(C)n2C(=O)c1ccc(Cl)cc1 [Indomethacin hydrate] | 1.25 ± 0.039 | 1.18 ± 0.051 | 1.34 ± 0.074 | 1.08 ± 0.079 | 1.37 ± 0.19 | 1.22 ± 0.12 | 1.15 ± 0.39 | – | 0.711 ± 0.049 | 1 ± 0.37 | 1.21 ± 0.23 | 1.26 ± 0.29 | 1.18 ± 0.056 | 1.03 ± 0.19 | 0.967 ± 0.13 | – | 0.658 ± 0.2
10 | COc1cc(Cc2cnc(N)nc2N)cc(OC)c1OC [Trimethoprim] | 1.17 ± 0.021 | 1.08 ± 0.026 | 1.19 ± 0.059 | 1.11 ± 0.14 | 1.12 ± 0.33 | 1.42 ± 0.35 | 0.561 ± 0.06 | 1.78 ± 0.55 | 1.34 ± 0.018 | 1.02 ± 0.25 | 0.768 ± 0.062 | 1.41 ± 0.43 | 1.5 ± 0.52 | 1.81 ± 0.27 | 1.15 ± 0.28 | – | –
